Results are given in words; binding and its absence hold for the method and conditions named. In cells and extracts the contact can be indirect. Some binding calls cover weakened binding; strength is not graded here.

The experiment deals with T1, Mitotic-phase GTPase activating protein (MP-GAP) (human (endogenous in HeLa)) (UniProt Q6P4F7).
T1 sequence: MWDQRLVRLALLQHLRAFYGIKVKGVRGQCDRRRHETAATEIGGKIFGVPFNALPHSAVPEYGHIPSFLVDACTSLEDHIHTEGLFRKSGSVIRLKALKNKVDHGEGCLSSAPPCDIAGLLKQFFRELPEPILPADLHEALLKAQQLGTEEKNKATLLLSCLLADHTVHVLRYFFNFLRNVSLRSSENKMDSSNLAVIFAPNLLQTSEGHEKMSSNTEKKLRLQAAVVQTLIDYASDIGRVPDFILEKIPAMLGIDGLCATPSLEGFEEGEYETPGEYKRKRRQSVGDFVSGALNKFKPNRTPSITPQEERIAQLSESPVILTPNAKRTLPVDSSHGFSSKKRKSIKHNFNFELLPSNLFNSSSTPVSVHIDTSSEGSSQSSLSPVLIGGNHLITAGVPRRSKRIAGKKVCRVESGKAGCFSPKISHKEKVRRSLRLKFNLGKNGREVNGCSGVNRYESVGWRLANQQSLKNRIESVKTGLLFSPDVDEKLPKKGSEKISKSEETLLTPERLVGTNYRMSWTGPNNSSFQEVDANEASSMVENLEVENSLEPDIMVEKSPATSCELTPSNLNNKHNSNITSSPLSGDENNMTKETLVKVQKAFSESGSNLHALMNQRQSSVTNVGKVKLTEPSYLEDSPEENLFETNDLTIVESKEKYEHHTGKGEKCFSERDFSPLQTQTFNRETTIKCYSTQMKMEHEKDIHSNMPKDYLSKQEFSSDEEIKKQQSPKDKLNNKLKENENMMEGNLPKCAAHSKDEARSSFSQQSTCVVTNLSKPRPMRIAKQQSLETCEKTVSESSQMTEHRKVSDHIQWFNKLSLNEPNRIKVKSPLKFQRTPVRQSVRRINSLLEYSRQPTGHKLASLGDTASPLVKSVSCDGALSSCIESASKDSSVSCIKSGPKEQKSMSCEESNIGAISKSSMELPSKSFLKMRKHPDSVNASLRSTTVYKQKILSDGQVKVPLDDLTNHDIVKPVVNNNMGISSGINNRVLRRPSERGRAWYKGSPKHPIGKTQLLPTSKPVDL
The experiment can be described thus: proximity ligation.

B1: Aurora A kinase (enzyme, UniProt O14965 1-403)
chain: MDRSKENCISGPVKATAPVGGPKRVLVTQQFPCQNPLPVNSGQAQRVLCPSNSSQRIPLQAQKLVSSHKPVQNQKQKQLQATSVPHPVSRPLNNTQKSKQPLPSAPENNPEEELASKQKNEESKKRQWALEDFEIGRPLGKGKFGNVYLAREKQSKFILALKVLFKAQLEKAGVEHQLRREVEIQSHLRHPNILRLYGYFHDATRVYLILEYAPLGTVYRELQKLSKFDEQRTATYITELANALSYCHSKRVIHRDIKPENLLLGSAGELKIADFGWSVHAPSSRRTTLCGTLDYLPPEMIEGRMHDEKVDLWSLGVLCYEFLVGKPPFEANTYQETYKRISRVEFTFPDFVTEGARDLISRLLKHNPSQRPMLREVLEHPWITANSSKPSNCQNKESASKQS
In the case of B1, the binding entry is reported as “binds”.

The values are drawn from publication doi:10.1101/2023.08.08.552464.
